In doi:10.1101/2023.12.19.571263 one finds binding data, which are given here for one substance.

Sequences of proteins named here, by UniProt entry; tags and fusion partners are left off.
UniProt Q13263: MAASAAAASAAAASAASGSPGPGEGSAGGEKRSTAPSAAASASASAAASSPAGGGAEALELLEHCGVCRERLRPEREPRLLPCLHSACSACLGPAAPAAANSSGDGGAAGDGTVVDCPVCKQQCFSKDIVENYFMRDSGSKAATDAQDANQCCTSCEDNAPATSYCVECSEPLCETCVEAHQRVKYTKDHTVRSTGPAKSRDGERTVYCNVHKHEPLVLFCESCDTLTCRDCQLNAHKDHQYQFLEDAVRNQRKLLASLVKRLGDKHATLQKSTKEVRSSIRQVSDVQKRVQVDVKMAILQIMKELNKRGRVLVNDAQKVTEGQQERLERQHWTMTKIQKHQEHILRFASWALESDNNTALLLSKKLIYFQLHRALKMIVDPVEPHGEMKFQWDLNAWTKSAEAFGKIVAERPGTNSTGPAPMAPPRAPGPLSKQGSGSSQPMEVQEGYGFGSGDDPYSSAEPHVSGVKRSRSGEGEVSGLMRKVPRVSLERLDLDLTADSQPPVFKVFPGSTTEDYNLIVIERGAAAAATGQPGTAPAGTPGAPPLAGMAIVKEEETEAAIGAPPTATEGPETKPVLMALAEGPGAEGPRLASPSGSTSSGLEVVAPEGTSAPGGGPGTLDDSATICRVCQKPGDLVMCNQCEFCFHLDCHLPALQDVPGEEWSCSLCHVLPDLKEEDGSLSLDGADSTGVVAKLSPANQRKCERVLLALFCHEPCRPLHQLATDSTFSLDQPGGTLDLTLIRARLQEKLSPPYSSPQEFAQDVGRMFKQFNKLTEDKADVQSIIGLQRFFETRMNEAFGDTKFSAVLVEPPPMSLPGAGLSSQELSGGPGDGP

The target in the assay is T1, YARS, cytoplasmic Tyrosyl (Y) tRNA synthetase (human (endogenous in MCF7 and LS174T)) (UniProt P54577).
T1 sequence: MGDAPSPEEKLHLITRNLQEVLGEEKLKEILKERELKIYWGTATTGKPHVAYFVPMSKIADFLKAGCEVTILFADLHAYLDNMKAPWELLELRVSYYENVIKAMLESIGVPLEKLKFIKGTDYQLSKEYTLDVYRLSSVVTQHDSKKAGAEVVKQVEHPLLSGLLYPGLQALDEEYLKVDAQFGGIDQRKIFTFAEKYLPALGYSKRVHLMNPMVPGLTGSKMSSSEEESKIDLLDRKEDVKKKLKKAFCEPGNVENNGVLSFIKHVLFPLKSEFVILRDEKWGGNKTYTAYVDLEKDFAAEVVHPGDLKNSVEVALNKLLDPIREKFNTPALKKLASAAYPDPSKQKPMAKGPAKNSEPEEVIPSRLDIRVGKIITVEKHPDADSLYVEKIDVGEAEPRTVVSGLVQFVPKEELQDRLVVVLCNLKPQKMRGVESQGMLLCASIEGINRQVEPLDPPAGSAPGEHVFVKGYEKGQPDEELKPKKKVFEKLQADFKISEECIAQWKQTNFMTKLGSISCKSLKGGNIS
The assay can be described thus: co-IP.

No constants are given. Whether binding was seen depends on the method and setting. Binding seen in cells or lysates may run through a third protein. Some binding calls cover weakened binding; strength is not graded here.

On to “Trim28 transcriptional regulator (from UniProt Q13263 1-835)”, for which the binding entry is “binds”.
